From paper PMC12656381 come the findings set out here.

The exact form of at least one protein or probe is not confirmed. Results from cells or extracts need not show a direct contact. For some assays here: Negatives hold for the conditions tested. Where a protein sequence is shown, tags need not be part of it.

Data set [1] has as its target T1, PS (psNTP9, pea apyrase) (Pisum sativum (pea)) (UniProt P52914).
T1 sequence (looked up, limits assumed): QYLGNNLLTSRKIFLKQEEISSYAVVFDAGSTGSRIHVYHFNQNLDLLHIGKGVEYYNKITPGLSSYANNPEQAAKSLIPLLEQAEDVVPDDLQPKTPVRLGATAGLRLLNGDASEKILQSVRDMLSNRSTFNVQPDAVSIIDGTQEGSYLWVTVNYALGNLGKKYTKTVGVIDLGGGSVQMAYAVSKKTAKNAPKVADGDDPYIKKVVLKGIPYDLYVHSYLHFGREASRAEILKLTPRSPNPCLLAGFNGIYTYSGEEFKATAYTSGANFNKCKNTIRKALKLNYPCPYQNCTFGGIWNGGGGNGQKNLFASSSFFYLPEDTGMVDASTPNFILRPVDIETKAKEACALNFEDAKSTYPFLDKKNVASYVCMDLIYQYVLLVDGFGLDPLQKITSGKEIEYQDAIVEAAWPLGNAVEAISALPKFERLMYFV
Description: EMSA. The settings on record: poly dI-dC, EMSA: 10 mM Tris pH 7.5, 50 mM KCl, 1 mM DTT, 1 ug/uL poly dI-dC, 20 uL, 200 ng protein, room temperature 20-30 min, 6% native PAGE, 0.5x TBE, protein in a lysate after overexpression. (Mobility shift assays separate free from complexed probe on a gel.)

Data set [2] concerns the target T1, PS (psNTP9, pea apyrase) (Pisum sativum (pea)). Description: competition with a labelled probe. The settings on record: EMSA: 10 mM Tris pH 7.5, 50 mM KCl, 1 mM DTT, 1 ug/uL poly dI-dC, 20 uL, 200 ng protein, room temperature 20-30 min, 6% native PAGE, 0.5x TBE, protein in a lysate after overexpression.
[3] abbreviates: label: 3' biotin on both strands.

In the case of “TTCACTTTTCAACTTATCCCTCTCAATCCCCAGTCCTATGACTCTCTATTCCCTCATATAGATAGATCAT (double strand) [PER50 mutant]”, the binding result in data set [1] (setting [3]) was “no binding”.

Regarding “ATAATGTTACGCAGTTCCGAGCTTCGCTGACACGTGGGAGGTGGGATATAATATTTGCACGGGTTC (double strand) [PHM6 test]”, the binding result in data set [1] and in data set [2] (200-fold excess unlabeled PHM6 reduces binding) was “binds” in each case.

As for “AGTTATTTTAACTAATAAACAGATAAAAAGAAATAGCCTACACTAAATTGGTAAATTATCGTAGTATCAT (double strand) [WRKY42 mutant]”, the binding result in data set [1] (setting [3]) was “no binding”.

Consider “TTCACTTTTCAACTTATCCCTCTCAATCCCCACCACCACCACTCTCTATTCCCTCATATAGATAGATCAT (double strand) [PER50 test]”, for which the binding result in data set [1] and in data set [2] (200-fold excess unlabeled PER50 inhibits binding) was “binds” each time.

For “AGTTATTTTAACTAATAAACAGATAAAAAGAAATAAAAAGTACTAAATTGGTAAATTATCGTAGTATCAT (double strand) [WRKY42 test]”, the binding result in data set [1] and in data set [2] (200-fold excess unlabeled WRKY42 reduces binding) was “binds” throughout.
